According to the supplement of paper PMC10849652:
Some of the results follow.

The chains behind the UniProt entries cited, without tags or fusion partners. Where a name states a change or a piece, a line headed by the entry shows the natural chain unless it says otherwise.
UniProt O43826: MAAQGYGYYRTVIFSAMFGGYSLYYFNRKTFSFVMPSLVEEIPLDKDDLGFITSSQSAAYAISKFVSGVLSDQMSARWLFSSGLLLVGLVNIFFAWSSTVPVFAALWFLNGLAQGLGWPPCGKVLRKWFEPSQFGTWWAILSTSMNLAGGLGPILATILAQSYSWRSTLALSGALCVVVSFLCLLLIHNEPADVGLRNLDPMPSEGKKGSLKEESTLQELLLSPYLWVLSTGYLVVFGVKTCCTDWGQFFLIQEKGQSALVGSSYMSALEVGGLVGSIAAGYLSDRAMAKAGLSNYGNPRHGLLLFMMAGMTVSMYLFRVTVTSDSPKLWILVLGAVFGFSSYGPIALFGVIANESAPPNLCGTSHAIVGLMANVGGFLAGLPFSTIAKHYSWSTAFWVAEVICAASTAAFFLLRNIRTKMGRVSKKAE
UniProt Q9Y2D2: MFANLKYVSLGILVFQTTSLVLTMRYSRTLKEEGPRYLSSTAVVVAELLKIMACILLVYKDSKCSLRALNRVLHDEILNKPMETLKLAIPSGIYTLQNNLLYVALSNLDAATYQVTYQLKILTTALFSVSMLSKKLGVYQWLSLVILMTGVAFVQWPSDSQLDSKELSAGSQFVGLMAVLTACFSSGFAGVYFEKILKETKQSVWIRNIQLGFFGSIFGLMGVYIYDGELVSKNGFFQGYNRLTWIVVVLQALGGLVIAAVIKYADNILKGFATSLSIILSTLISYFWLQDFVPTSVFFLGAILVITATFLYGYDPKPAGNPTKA
UniProt P78381: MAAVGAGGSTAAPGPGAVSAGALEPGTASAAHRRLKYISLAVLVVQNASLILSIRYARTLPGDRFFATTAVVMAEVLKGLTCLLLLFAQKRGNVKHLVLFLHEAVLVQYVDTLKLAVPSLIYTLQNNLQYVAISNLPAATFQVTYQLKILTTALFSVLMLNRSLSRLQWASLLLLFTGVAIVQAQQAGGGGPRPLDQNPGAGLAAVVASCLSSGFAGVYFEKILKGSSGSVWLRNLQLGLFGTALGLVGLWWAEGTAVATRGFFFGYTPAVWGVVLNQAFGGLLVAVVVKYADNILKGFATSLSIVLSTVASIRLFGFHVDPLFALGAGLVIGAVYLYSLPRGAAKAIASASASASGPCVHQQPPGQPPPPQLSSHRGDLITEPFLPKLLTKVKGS
UniProt Q8NBW4: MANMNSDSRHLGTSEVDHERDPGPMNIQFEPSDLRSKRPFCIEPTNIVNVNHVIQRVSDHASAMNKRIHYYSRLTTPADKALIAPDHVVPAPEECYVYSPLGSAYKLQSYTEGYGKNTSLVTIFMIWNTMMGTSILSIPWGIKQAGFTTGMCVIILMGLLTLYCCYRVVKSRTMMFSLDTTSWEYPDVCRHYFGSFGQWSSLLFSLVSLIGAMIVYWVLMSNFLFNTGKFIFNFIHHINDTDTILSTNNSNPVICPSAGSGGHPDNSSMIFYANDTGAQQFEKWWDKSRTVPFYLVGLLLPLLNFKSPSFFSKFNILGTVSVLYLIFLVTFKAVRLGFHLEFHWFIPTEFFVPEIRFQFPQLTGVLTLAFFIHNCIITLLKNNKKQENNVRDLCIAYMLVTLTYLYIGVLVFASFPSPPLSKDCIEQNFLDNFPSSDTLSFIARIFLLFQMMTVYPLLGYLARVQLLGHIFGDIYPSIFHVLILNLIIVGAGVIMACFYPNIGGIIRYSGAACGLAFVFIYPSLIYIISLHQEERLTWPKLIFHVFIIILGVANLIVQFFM
UniProt Q9H2X9: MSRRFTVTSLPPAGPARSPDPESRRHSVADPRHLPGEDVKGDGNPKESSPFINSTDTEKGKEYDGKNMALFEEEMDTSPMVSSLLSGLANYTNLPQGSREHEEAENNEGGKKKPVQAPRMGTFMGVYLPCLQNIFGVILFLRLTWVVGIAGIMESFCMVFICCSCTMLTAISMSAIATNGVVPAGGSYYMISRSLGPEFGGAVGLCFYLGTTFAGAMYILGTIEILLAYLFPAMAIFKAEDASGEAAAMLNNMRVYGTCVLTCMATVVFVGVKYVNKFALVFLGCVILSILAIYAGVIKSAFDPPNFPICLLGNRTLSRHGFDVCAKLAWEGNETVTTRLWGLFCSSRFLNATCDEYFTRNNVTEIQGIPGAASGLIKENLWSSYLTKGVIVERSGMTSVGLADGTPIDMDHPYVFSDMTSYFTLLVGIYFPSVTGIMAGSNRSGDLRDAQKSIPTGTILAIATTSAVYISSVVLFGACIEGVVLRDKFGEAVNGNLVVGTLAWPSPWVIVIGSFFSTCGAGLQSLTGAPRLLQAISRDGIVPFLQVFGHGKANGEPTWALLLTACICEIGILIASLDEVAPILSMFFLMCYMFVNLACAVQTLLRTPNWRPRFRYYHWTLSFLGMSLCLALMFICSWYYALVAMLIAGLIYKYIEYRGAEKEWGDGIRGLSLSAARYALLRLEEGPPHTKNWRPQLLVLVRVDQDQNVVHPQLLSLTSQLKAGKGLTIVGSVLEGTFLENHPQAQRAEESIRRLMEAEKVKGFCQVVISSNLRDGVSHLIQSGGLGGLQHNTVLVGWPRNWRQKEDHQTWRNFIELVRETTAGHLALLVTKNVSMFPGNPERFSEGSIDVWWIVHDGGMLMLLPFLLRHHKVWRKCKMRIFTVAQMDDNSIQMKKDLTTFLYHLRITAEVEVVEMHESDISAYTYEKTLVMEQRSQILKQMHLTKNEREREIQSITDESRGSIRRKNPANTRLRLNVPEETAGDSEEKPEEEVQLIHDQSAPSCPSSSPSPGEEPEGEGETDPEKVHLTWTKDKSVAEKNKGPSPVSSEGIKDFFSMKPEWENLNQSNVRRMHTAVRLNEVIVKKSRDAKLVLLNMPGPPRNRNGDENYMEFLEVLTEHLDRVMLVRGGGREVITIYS
UniProt Q70HW3: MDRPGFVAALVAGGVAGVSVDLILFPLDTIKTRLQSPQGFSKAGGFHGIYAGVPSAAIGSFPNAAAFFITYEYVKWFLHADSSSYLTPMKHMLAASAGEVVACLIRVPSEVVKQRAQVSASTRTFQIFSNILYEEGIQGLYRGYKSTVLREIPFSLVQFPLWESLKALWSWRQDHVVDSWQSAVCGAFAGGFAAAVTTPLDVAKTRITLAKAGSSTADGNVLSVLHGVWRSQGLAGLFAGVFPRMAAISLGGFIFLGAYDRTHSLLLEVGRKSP
UniProt P53794: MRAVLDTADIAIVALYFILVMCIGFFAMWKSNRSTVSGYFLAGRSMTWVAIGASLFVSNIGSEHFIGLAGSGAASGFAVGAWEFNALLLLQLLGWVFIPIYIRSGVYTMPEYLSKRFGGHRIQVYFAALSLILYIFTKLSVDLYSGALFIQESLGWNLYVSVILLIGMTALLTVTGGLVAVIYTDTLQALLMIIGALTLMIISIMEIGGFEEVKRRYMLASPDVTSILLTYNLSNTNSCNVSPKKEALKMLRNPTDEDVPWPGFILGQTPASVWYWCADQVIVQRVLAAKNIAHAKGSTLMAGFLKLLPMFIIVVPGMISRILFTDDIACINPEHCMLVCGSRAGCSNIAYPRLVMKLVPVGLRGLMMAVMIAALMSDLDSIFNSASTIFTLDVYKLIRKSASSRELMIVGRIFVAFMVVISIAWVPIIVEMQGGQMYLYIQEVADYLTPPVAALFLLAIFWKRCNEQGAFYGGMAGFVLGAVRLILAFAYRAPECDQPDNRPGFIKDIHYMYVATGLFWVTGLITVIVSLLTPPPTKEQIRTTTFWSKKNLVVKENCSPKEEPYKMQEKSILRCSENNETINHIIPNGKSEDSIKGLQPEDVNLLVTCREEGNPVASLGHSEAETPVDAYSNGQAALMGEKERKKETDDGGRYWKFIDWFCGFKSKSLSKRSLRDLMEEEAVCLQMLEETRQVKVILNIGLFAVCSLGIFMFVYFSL
UniProt P53985: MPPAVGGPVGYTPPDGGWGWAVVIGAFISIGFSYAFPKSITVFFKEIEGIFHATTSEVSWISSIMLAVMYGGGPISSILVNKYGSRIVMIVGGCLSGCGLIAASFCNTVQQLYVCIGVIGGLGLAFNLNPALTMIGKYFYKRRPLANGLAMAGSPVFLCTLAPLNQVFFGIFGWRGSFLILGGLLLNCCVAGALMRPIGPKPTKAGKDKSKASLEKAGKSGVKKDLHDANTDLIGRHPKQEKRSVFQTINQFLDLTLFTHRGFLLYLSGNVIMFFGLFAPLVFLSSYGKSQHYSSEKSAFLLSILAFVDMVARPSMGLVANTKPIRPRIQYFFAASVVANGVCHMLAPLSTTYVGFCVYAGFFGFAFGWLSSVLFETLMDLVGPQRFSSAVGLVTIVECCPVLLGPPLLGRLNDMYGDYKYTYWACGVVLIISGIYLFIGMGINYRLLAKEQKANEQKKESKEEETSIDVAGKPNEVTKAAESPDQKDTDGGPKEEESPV
UniProt Q96QE2: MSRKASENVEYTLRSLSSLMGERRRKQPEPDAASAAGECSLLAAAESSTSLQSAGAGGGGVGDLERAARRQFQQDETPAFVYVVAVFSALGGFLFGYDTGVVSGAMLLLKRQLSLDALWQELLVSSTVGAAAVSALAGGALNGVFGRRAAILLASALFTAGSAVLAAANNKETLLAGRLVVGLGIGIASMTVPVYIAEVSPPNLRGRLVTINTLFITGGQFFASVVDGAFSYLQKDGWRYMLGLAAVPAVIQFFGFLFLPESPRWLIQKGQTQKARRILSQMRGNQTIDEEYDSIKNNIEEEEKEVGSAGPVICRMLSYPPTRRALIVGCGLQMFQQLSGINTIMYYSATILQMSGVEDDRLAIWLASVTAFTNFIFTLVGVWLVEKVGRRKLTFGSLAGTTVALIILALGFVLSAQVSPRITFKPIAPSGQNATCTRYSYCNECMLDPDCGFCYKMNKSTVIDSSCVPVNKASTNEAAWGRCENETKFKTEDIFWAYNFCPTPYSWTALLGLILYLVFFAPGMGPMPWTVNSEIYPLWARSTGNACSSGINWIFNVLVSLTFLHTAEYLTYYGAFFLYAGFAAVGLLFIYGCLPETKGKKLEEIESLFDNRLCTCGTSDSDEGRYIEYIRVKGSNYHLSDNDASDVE
UniProt O43772: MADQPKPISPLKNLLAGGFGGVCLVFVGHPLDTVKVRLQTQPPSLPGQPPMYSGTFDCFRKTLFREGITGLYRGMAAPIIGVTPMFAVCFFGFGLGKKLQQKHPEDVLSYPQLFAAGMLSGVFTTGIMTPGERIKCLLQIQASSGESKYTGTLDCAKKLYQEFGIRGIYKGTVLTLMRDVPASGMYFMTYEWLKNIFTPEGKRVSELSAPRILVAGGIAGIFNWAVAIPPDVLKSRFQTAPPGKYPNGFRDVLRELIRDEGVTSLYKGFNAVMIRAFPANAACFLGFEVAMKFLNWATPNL
UniProt P0CK96: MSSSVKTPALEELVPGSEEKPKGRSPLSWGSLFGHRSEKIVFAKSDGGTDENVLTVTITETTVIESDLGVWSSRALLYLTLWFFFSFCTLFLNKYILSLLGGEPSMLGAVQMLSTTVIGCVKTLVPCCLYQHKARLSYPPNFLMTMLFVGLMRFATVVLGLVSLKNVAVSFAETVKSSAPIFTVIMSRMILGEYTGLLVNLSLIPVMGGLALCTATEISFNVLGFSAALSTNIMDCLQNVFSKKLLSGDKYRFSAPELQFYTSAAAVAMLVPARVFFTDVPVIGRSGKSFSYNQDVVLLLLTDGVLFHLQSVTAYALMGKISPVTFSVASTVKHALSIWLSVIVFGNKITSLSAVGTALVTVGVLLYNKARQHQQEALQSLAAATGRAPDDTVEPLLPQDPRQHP
UniProt Q9BXS9: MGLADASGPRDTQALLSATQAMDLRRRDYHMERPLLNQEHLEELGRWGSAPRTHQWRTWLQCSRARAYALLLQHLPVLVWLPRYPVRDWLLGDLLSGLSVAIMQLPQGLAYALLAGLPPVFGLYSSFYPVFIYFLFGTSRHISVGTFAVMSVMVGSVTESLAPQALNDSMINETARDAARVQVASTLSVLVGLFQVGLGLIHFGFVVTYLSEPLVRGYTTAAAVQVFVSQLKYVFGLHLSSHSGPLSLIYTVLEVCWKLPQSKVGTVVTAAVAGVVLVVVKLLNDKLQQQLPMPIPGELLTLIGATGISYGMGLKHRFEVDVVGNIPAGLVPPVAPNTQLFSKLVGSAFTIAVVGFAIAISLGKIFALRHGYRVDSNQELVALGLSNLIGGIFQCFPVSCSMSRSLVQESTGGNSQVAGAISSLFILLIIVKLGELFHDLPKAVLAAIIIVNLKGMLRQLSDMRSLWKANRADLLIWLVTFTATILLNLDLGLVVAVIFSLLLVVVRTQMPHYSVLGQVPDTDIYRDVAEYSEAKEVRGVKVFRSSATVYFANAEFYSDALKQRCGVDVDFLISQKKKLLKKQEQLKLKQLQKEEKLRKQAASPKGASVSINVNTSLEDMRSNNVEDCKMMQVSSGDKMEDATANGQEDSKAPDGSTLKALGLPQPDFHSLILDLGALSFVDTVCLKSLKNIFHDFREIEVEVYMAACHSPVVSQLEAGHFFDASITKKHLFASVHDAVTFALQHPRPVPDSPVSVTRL

Key:
Test in all cases: log2 fold change, soluble protein after heating vs DMSO (PISA); higher = thermal stabilisation; K562 cells, 10 uM, 30 min; active = over 0.2 and 3.5 SD of the protein, either way, in both replicates (recomputed)
[1] = compound: CC1=C(C=C(C=C1)NC(=O)C2=CC(=CC=C2)C(C)(C)C#N)NC3=CC4=C(C=C3)N=CN(C4=O)C
Outline: (§1)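 K562 cells (2×10^6 cells/mL) were treated with 10 μM compound for 30 min, and aliquots were heated for 3 min over 48°C-58°C. Pooled aliquots were extracted in PBS with 0.5% NP-40 at 4°C, and the supernatant after 21,000xg for 90 min was measured by TMTpro 16plex LC-MS/MS with channel sums equalised. Reported thermal stability, relative to control samples and from duplicates, is a log2 fold change.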

[2] = compound: CC1=C(C=C(C=C1)NC(=O)C2=CC(=CC=C2)N(C)C)NC(=O)C3=CC=C(C=C3)O
Outline: as §1

[3] = compound: CC1=NC(=CC=C1)C2=C(N=C(N2)C(C)(C)C)C3=CC4=NC=CN=C4C=C3
Outline: as §1

givinostat = compound: CCN(CC)Cc1ccc2cc(COC(=O)Nc3ccc(C(=O)NO)cc3)ccc2c1 [givinostat]
Outline: as §1

barasertib = compound: CCN(CCCOc1ccc2c(Nc3cc(CC(=O)Nc4cccc(F)c4)[nH]n3)ncnc2c1)CCOP(=O)(O)O [barasertib]
Outline: as §1

[4] = compound: CC1=CC=C(C=C1)SC2=C3C=C(SC3=CN=C2)C(=O)N
Outline: as §1

Nexturastat A = compound: CCCCN(Cc1ccc(C(=O)NO)cc1)C(=O)Nc1ccccc1 [Nexturastat A]
Outline: as §1

vemurafenib = compound: CCCS(=O)(=O)Nc1ccc(F)c(C(=O)c2c[nH]c3ncc(-c4ccc(Cl)cc4)cc23)c1F [vemurafenib]
Outline: as §1

[5] = compound: CCCS(=O)(=O)Nc1ccc(F)c(C(=O)c2c[nH]c3ncc(Cl)cc23)c1F
Outline: as §1

[6] = compound: CCCc1cc(C)[nH]c(=O)c1CNC(=O)c1cc(-c2ccnc(N3CCN(C)CC3)c2)cc2c1cnn2C(C)C
Outline: as §1

Measured: log2 fold change

SLC48A1 (UniProt Q6P1K1)
inactive: [1] -0.021 | [2] 0.167 | [3] -0.034 | givinostat 0.1 | barasertib 0.039

SLC4A1 (UniProt P02730)
inactive: [1] 0.014 | [2] 0.071 | [4] -0.108 | [3] -0.01 | Nexturastat A -0.019 | vemurafenib -0.103 | [5] -0.098 | [6] -0.051 | givinostat -0.03 | barasertib 0.046

SLC35F6 (UniProt Q8N357)
inactive: [1] -0.041 | [2] -0.166 | [4] 0.001 | Nexturastat A -0.065 | vemurafenib -0.168 | [5] -0.055 | [6] -0.066 | givinostat 0.129 | barasertib 0.045

SLC39A8 (UniProt Q9C0K1)
inactive: [1] 0.024 | [2] 0.114 | [4] 0.141 | Nexturastat A -0.012 | vemurafenib 0.022 | [5] -0.041 | [6] -0.241 | givinostat -0.049 | barasertib 0.039

SLC35B3 (UniProt Q9H1N7)
inactive: [1] -0.071 | [2] 0.031 | [3] 0.014 | Nexturastat A 0.166 | vemurafenib -0.042 | [6] 0.033 | givinostat -0.109 | barasertib -0.005

SLC6A8 (UniProt P48029)
inactive: [1] 0.049 | [2] -0.019 | [4] -0.087 | [3] -0.002 | Nexturastat A -0.01 | vemurafenib 0.026 | [5] -0.08 | [6] -0.047 | givinostat -0.026 | barasertib -0.01

SLBP (UniProt Q14493)
inactive: [1] -0.012 | [2] -0.08 | [4] 0.019 | [3] 0.099 | Nexturastat A -0.218 | vemurafenib 0.028 | [5] 0.057 | [6] 0.024 | givinostat 0.055 | barasertib 0.06

SLC37A4 isoform 2 (UniProt O43826)
inactive: [1] 0.01 | [2] 0.087 | [4] 0.065 | [3] -0.037 | Nexturastat A -0.054 | vemurafenib -0.017 | [5] 0.079 | [6] -0.038 | givinostat -0.02 | barasertib 0.01

SLC25A1 (UniProt P53007)
inactive: [1] -0.04 | [2] 0.046 | [4] 0.041 | [3] 0.024 | Nexturastat A -0.036 | vemurafenib 0.007 | [5] 0.023 | [6] -0.028 | givinostat -0.039 | barasertib -0.004

SLC6A9 (UniProt P48067)
inactive: [1] 0.071 | [2] 0.014 | [4] -0.016 | [3] -0.091 | vemurafenib -0.014 | [5] -0.033 | [6] -0.018 | givinostat -0.059 | barasertib 0.023

Two records picked at random from those above, as already listed:
SLC39A8 (UniProt Q9C0K1)
inactive: [1] 0.024 | [2] 0.114 | [4] 0.141 | Nexturastat A -0.012 | vemurafenib 0.022 | [5] -0.041 | [6] -0.241 | givinostat -0.049 | barasertib 0.039

SLBP (UniProt Q14493)
inactive: [1] -0.012 | [2] -0.08 | [4] 0.019 | [3] 0.099 | Nexturastat A -0.218 | vemurafenib 0.028 | [5] 0.057 | [6] 0.024 | givinostat 0.055 | barasertib 0.06

(cont.)

SLC35B1 isoform 2 (UniProt P78383)
inactive: [1] 0.165 | [2] -0.109 | [3] 0.054 | Nexturastat A 0.072 | vemurafenib 0.267 | [6] -0.221 | givinostat 0.069 | barasertib -0.055

SLC35A3 isoform 2 (UniProt Q9Y2D2)
inactive: [1] 0.016 | [2] 0.075 | [4] -0.039 | [3] 0 | Nexturastat A -0.056 | [5] -0.003 | [6] 0.216 | givinostat 0.015 | barasertib -0.052

SLC41A1 (UniProt Q8IVJ1)
inactive: [1] 0.123 | [2] 0.016 | [4] 0.491 | [3] -0.086 | Nexturastat A 0.098 | [5] 0.294 | [6] 0.004

SLC35A2 isoform 4 (UniProt P78381)
inactive: [1] 0.031 | [2] 0.062 | [4] 0.108 | [3] -0.028 | Nexturastat A -0.095 | vemurafenib -0.105 | [5] -0.001 | [6] -0.173 | barasertib -0.014

SLC44A2 isoform 2 (UniProt Q8IWA5)
inactive: [1] 0.084 | [2] -0.033 | [3] -0.024 | Nexturastat A 0.05 | vemurafenib 0.038 | [6] -0.029 | givinostat -0.027 | barasertib -0.012

SLC38A9 (UniProt Q8NBW4)
inactive: [1] 0.075 | [2] 0.007 | [4] -0.05 | [3] 0.023 | Nexturastat A 0.088 | vemurafenib -0.036 | [5] -0.012 | [6] -0.105 | givinostat 0.021 | barasertib -0.006

SLC12A5 (UniProt Q9H2X9)
inactive: [1] 0.074 | [4] 0.108 | [3] 0.198 | Nexturastat A 0.001 | vemurafenib -0.105 | [5] 0.081 | [6] -0.018 | givinostat 0.016 | barasertib -0.004

SLC25A30 (UniProt Q5SVS4)
inactive: [1] -0.059 | [2] -0.082 | [4] -0.197 | [3] -0.126 | vemurafenib -0.013 | [5] -0.015 | givinostat -0.101

SLC35F5 (UniProt Q8WV83)
inactive: [1] -0.125 | [4] 0.089 | [3] -0.323 | Nexturastat A 0.046 | [5] -0.152 | barasertib 0.184

SLC25A13 isoform 2 (UniProt Q9UJS0)
inactive: [1] -0.004 | [2] -0.008 | [4] -0.009 | [3] -0.019 | Nexturastat A -0.059 | vemurafenib -0.031 | [5] 0.004 | [6] -0.013 | givinostat 0.007 | barasertib -0.009

SLC25A26 (UniProt Q70HW3)
inactive: [1] -0.017 | [2] 0.145 | [3] 0.09 | Nexturastat A -0.102 | vemurafenib 0.005 | [6] -0.09 | givinostat -0.019 | barasertib 0.024

SLC5A3 (UniProt P53794)
inactive: [1] 0.008 | [2] 0.02 | [4] 0.081 | [3] -0.016 | Nexturastat A -0.052 | vemurafenib -0.012 | [5] -0.03 | [6] -0.056 | givinostat 0.016 | barasertib 0.042

SLC43A3 (UniProt Q8NBI5)
inactive: [1] -0.11 | [4] -0.024 | Nexturastat A -0.052 | [5] -0.058

SLC16A1 (UniProt P53985)
inactive: [1] -0.031 | [2] -0.03 | [4] 0.037 | [3] -0.021 | Nexturastat A -0.057 | vemurafenib 0.016 | [5] -0.004 | [6] 0.061 | givinostat 0.005 | barasertib -0.031

SLC2A13 (UniProt Q96QE2)
inactive: [1] -0.004 | [2] 0.046 | [4] 0.176 | Nexturastat A -0.079 | vemurafenib -0.015 | [5] -0.192 | givinostat -0.072 | barasertib 0.17

SLC25A20 (UniProt O43772)
inactive: [1] -0.026 | [2] 0.042 | [4] 0.025 | [3] -0.008 | Nexturastat A -0.082 | vemurafenib -0.039 | [5] 0.056 | [6] -0.023 | givinostat -0.043 | barasertib 0

SLC35E2B (UniProt P0CK96)
inactive: [1] 0.021 | [2] -0.018 | [4] -0.251 | [3] 0.006 | vemurafenib -0.01 | [5] -0.007 | [6] -0.072 | barasertib 0.047

SLC26A6 (UniProt Q9BXS9)
inactive: [1] -0.074 | [2] 0.016 | [4] -0.15 | [3] 0.024 | Nexturastat A -0.077 | vemurafenib -0.01 | [5] -0.006 | [6] -0.057 | givinostat -0.1 | barasertib -0.024
